The supplement of paper PMC10849652
This is one part of the list.

Protein sequences, listed by entry. Tags and fused reporters are not part of them. Lines headed by an entry give the natural chain unless they say otherwise; changes in a name come on top.
UniProt Q14145, whole entry, looked up: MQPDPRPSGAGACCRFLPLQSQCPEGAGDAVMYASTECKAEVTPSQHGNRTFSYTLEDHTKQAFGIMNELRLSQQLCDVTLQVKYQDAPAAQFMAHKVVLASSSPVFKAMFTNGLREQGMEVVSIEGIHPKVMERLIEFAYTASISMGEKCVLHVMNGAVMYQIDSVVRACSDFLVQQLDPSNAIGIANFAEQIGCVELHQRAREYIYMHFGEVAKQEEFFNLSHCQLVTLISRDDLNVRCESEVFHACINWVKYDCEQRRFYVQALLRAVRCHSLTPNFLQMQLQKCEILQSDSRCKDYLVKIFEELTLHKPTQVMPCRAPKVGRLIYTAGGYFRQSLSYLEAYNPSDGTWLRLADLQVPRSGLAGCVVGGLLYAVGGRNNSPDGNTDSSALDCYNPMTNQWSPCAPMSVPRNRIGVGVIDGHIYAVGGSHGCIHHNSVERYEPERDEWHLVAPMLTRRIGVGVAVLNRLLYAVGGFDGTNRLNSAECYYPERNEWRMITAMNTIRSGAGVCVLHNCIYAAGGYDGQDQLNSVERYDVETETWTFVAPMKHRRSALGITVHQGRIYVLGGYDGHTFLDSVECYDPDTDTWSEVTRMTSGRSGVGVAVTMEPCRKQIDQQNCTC
UniProt P41229: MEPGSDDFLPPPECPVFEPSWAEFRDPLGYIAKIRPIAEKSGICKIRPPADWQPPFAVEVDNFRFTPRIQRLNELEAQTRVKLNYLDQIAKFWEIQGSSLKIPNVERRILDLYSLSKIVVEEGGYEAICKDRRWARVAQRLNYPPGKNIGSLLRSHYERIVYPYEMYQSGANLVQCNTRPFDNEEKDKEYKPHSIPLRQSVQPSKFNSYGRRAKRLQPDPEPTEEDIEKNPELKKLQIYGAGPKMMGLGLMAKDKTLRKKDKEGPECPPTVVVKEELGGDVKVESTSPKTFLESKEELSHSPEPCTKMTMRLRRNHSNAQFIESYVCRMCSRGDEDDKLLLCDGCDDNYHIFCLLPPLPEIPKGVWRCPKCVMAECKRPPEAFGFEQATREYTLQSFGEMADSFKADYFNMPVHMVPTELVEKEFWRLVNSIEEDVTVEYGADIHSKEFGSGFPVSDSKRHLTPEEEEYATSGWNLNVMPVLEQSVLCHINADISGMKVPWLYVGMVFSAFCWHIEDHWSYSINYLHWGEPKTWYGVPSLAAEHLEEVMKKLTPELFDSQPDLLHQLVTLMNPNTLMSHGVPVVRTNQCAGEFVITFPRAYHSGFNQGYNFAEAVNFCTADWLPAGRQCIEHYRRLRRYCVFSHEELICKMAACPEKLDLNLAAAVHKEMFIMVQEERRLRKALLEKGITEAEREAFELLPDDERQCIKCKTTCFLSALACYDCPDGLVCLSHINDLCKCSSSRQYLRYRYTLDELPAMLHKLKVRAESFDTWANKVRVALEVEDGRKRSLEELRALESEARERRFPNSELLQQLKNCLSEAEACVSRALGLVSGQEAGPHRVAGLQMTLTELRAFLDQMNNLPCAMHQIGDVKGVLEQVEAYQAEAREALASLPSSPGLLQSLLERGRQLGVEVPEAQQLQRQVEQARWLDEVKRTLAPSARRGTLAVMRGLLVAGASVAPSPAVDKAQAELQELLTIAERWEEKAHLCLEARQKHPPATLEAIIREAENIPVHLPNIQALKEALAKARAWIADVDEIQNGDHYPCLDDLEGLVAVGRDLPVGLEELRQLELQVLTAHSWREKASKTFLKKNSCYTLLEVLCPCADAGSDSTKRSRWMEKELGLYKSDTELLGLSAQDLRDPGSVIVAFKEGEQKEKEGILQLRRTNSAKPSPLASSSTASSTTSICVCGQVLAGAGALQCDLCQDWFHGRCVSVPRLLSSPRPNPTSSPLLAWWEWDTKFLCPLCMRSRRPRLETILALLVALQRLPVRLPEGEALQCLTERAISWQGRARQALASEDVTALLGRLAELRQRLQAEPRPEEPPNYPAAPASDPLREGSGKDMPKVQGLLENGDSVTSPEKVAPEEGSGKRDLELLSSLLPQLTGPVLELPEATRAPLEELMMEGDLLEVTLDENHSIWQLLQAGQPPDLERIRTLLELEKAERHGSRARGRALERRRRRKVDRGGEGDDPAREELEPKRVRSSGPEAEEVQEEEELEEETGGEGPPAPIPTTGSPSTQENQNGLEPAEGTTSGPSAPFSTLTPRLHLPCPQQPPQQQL
UniProt Q96EK5: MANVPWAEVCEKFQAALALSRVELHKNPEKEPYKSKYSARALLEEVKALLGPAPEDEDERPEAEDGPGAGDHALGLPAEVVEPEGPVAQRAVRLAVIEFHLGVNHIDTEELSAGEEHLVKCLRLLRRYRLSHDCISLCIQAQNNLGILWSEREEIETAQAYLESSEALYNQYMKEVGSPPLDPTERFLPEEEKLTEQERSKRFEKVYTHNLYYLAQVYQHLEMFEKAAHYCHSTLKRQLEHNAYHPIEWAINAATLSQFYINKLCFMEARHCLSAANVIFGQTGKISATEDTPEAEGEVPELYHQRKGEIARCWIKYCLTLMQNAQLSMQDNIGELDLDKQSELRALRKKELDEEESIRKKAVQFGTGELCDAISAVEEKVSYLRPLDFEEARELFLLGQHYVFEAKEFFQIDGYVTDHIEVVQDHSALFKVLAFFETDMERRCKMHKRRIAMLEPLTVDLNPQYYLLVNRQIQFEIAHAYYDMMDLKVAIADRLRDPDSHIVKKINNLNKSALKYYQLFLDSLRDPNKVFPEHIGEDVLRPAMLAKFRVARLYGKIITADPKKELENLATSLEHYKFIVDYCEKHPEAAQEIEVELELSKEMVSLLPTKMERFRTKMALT
UniProt Q1ED39: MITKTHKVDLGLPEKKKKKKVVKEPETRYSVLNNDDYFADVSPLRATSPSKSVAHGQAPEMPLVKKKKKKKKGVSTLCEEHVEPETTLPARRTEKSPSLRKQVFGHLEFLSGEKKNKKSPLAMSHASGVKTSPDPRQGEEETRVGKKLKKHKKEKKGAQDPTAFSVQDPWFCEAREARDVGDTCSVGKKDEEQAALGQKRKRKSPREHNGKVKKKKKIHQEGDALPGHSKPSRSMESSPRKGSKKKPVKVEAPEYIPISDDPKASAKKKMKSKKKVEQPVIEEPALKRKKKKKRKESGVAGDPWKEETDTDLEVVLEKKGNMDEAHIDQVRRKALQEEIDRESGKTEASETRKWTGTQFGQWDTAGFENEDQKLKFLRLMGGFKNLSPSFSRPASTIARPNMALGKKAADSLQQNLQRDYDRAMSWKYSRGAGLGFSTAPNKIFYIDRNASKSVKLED
UniProt Q14807: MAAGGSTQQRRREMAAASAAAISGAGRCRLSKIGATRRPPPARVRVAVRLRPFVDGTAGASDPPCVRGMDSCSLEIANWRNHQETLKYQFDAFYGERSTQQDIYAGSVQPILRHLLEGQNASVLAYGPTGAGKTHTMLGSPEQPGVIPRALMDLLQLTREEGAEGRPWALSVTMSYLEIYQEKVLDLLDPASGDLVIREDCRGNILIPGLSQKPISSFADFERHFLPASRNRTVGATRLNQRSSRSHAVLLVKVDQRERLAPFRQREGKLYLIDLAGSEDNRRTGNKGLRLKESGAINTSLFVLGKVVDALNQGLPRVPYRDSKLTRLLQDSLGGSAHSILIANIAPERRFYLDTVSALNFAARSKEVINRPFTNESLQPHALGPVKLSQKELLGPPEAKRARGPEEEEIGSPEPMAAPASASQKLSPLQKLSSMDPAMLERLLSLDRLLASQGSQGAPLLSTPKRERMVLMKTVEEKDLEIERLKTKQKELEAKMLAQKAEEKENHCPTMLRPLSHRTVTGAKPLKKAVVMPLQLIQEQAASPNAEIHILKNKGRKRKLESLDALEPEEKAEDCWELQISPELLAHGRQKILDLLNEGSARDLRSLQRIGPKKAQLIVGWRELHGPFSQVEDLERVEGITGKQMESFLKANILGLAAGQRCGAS
UniProt P52294, whole entry, looked up: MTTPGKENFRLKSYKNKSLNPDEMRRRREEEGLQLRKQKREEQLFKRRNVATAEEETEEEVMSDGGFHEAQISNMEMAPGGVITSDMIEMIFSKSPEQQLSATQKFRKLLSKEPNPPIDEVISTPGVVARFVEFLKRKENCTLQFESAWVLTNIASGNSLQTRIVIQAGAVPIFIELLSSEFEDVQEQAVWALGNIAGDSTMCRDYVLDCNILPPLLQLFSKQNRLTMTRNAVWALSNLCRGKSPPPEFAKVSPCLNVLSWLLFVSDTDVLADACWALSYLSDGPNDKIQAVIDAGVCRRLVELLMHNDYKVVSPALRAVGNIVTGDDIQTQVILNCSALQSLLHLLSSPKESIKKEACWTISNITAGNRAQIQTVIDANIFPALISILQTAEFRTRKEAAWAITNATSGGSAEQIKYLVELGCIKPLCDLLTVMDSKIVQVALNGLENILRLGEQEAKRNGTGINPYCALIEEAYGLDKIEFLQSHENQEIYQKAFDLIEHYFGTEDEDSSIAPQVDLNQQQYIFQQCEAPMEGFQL
UniProt Q12840: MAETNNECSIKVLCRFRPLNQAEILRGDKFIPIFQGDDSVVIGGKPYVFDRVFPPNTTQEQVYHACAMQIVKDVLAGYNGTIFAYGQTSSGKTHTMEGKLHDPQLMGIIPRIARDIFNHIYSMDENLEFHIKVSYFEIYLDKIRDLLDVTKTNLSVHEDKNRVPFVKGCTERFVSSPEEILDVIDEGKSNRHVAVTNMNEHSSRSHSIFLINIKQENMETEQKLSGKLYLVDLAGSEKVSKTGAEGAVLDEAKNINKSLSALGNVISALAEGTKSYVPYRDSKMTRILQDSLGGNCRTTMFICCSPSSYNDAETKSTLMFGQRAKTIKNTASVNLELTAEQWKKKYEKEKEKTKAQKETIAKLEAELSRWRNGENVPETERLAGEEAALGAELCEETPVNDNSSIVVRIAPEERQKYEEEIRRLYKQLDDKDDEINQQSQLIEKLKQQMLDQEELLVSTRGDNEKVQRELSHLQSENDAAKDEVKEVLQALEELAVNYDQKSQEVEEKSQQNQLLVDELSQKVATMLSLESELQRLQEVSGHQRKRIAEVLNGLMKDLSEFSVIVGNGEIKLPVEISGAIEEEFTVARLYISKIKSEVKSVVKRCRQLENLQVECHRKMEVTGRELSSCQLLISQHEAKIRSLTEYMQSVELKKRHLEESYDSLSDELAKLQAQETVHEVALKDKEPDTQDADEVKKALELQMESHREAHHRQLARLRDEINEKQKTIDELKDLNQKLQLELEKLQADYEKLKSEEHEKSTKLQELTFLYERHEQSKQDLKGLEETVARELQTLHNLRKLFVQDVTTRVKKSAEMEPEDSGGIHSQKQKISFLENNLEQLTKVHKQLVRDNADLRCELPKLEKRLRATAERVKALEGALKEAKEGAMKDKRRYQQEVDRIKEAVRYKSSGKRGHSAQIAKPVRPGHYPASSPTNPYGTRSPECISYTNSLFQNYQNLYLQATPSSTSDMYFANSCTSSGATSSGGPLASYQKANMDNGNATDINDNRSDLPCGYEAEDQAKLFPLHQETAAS
UniProt Q9NS86: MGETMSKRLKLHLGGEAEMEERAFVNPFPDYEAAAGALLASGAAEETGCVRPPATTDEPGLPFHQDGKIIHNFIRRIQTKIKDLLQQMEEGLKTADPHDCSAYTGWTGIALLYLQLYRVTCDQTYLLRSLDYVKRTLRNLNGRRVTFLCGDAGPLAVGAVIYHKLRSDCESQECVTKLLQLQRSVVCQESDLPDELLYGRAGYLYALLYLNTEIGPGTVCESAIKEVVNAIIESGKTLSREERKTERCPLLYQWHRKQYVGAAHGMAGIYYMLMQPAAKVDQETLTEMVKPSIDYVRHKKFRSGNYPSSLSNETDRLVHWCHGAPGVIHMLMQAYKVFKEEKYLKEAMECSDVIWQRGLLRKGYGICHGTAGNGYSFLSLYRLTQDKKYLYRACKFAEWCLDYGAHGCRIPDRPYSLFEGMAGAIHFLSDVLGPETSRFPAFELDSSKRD
UniProt Q9UHA4, whole entry, looked up: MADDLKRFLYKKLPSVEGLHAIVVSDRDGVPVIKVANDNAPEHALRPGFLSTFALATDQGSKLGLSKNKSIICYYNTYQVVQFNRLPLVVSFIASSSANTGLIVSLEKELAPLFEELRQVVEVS
UniProt Q9BQD3: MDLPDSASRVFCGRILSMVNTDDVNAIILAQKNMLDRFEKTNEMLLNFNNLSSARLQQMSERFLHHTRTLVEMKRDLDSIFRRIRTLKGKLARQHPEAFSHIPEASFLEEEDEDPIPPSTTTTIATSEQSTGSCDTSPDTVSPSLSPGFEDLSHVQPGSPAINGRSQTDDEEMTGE
UniProt Q9BXK1: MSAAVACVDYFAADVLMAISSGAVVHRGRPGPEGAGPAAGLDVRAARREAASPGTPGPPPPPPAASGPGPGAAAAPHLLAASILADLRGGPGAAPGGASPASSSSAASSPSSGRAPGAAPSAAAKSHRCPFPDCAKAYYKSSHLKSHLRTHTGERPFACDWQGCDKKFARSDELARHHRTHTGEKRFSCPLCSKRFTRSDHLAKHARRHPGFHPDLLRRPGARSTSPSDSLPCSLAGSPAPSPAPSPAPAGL

Assays:
Experiment in all cases: log2 fold change, soluble protein after heating vs DMSO (PISA); higher = thermal stabilisation; K562 lysate, 10 uM; active = over 0.2 and 3.5 SD of the protein, either way, in both replicates (recomputed)
[1] = compound: C#Cc1cccc(Nc2ncnc3cc(OCCOC)c(OCCOC)cc23)c1 [erlotinib]
Summary of the method: (§1)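 Quantification was by TMTpro 16plex LC-MS/MS with equalised channel sums, applied to the supernatant after 21,000xg for 90 min. Samples were crude K562 extract at 1 mg/mL protein in PBS pH 7.4 with 1 mM MgCl2, treated with 10 μM compound for 30 min, heated for 3 min across 48°C-58°C, pooled and brought to 0.5% NP-40 at 4°C. Values are log-two fold changes in thermal stability relative to solvent controls, from duplicates.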

[2] = compound: C/C(=N\NC(=O)C1=CC(=CC=C1)S(=O)(=O)N2CCOCC2)/C3=C(C=CC(=C3)Cl)O
Summary of the method: as §1

[3] = compound: C1=CC(=CC=C1C2=NC3=C(N2)C=C(C=C3)C(=O)N)OC4=CC=C(C=C4)Cl
Summary of the method: as §1

[4] = compound: C1=CC2=C(C=CC(=C2)/C=C\3/C(=O)NC(=NCC4=CC=CS4)S3)N=C1
Summary of the method: as §1

[5] = compound: C1=CC2=NC=CN=C2C=C1/C=C/3\C(=O)NC(=O)S3
Summary of the method: as §1

[6] = compound: C1=CC=C(C=C1)C2=NC(=C(N2)C3=CC=NC=C3)C4=CC(=C(C=C4)Cl)O
Summary of the method: as §1

[7] = compound: C1=CC=C2C(=C1)C3=NNC4=CC=CC(=C43)C2=O
Summary of the method: as §1

[8] = compound: C1CCN(C1)C(=O)NC2=CC=CC(=C2)NC3=NC=C(C(=N3)NCCC4=CN=CN4)Br
Summary of the method: as §1

[9] = compound: C1CN(CCC1(CC2=CC=C(C=C2)Cl)N)C3=NC=NC4=C3C=CN4
Summary of the method: as §1

[10] = compound: C1COCCN1CCN2C3=CC=CC=C3N=C2NC(=O)C4=CC(=CC=C4)[N+](=O)[O-] [IRAK-1-4 Inhibitor I]
Summary of the method: as §1

[11] = compound: C=CC(=O)N1CCC[C@@H](n2nc(-c3ccc(Oc4ccccc4)cc3)c3c(N)ncnc32)C1 [ibrutinib]
Summary of the method: as §1

[12] = compound: CC(=O)c1cnc2ccc(-c3cc(Cl)c(O)c(Cl)c3)nc2c1N[C@H]1CC[C@H](CN(C)C)CC1
Summary of the method: as §1

[13] = compound: CC(C)(C)Cn1c(N)nc2ccc(-c3[nH]c(C(C)(C)C)nc3-c3ccc(F)cc3)nc21 [ralimetinib]
Summary of the method: as §1

[14] = compound: CC(C)(O)CC(=O)NCCn1ccc2ncnc(Nc3ccc(Oc4cccc(C(F)(F)F)c4)c(Cl)c3)c21
Summary of the method: as §1

[15] = compound: CC(C)C1=C2N=C(C=C(N2N=C1)NCC3=CC=CC=C3)NCCCCCCN
Summary of the method: as §1

[16] = compound: CC1=C(C(CC(=O)N1)C2=CC=C(C=C2)C(F)(F)F)C(=O)NC3=C(C=C4C(=C3)C=NN4)F
Summary of the method: as §1

[17] = compound: CC1=C(C2=C(C=C1)C(=O)C3=CC=CC=C3N2CCCN)C
Summary of the method: as §1

[18] = compound: CC1=C(C=C(C=C1)NC(=O)C2=CC(=CC=C2)C(C)(C)C#N)NC3=CC4=C(C=C3)N=CN(C4=O)C
Summary of the method: as §1

[19] = compound: CC1=C(C=C(C=C1)NC(=O)C2=CC(=CC=C2)N(C)C)NC(=O)C3=CC=C(C=C3)O
Summary of the method: as §1

[20] = compound: CC1=CC=C(C=C1)SC2=C3C=C(SC3=CN=C2)C(=O)N
Summary of the method: as §1

Measured: log2 fold change

KEAP1 (UniProt Q14145)
inactive: [1] 0.048 | [2] 0.006 | [3] 0.018 | [4] -0.005 | [5] 0.014 | [6] 0.015 | [7] -0.006 | [8] 0.038 | [9] 0.018 | [10] -0.006 | [11] 0.014 | [12] 0.001 | [13] 0.017 | [14] -0.014 | [15] -0.015 | [16] -0.026 | [17] -0.049 | [18] 0.012 | [19] 0.019 | [20] -0.024

KDM5C (UniProt P41229)
inactive: [1] 0.052 | [2] 0.017 | [3] 0.022 | [4] -0.059 | [5] -0.009 | [6] -0.041 | [7] -0.031 | [8] -0.053 | [9] -0.002 | [10] 0.01 | [11] 0.089 | [12] -0.132 | [13] 0.005 | [14] -0.02 | [15] 0.015 | [16] 0.01 | [17] 0.012 | [18] -0.013 | [19] 0.031 | [20] 0.001

KIFBP (UniProt Q96EK5)
inactive: [1] -0.006 | [2] -0.021 | [3] -0.052 | [4] 0.042 | [5] 0.02 | [6] -0.018 | [7] -0.01 | [8] -0.003 | [9] -0.038 | [10] -0.028 | [11] 0.019 | [12] -0.009 | [13] 0.048 | [14] 0.037 | [15] -0.019 | [16] -0.014 | [17] 0.022 | [18] -0.012 | [19] 0.015 | [20] 0.034

KNOP1 (UniProt Q1ED39)
inactive: [1] -0.018 | [2] -0.011 | [3] -0.006 | [4] -0.176 | [5] 0.019 | [6] 0.008 | [7] 0.109 | [8] -0.128 | [9] 0.118 | [10] 0.123 | [11] -0.079 | [12] -0.096 | [13] -0.096 | [14] -0.133 | [15] -0.031 | [16] 0.052 | [17] -0.114 | [18] 0.155 | [19] -0.033 | [20] -0.118

LACTB2 (UniProt Q53H82)
inactive: [1] 0.01 | [2] -0.104 | [3] 0.033 | [4] -0.006 | [5] 0.006 | [6] 0.011 | [7] 0.003 | [8] 0.001 | [9] 0.007 | [10] -0.023 | [11] 0.019 | [12] -0.002 | [13] -0.034 | [14] -0.014 | [15] -0.032 | [16] 0.008 | [17] -0.02 | [18] 0.035 | [19] -0.023 | [20] -0.012

Random excerpt: 2 records from the list.
LACTB2 (UniProt Q53H82)
inactive: [1] 0.01 | [2] -0.104 | [3] 0.033 | [4] -0.006 | [5] 0.006 | [6] 0.011 | [7] 0.003 | [8] 0.001 | [9] 0.007 | [10] -0.023 | [11] 0.019 | [12] -0.002 | [13] -0.034 | [14] -0.014 | [15] -0.032 | [16] 0.008 | [17] -0.02 | [18] 0.035 | [19] -0.023 | [20] -0.012

KIFBP (UniProt Q96EK5)
inactive: [1] -0.006 | [2] -0.021 | [3] -0.052 | [4] 0.042 | [5] 0.02 | [6] -0.018 | [7] -0.01 | [8] -0.003 | [9] -0.038 | [10] -0.028 | [11] 0.019 | [12] -0.009 | [13] 0.048 | [14] 0.037 | [15] -0.019 | [16] -0.014 | [17] 0.022 | [18] -0.012 | [19] 0.015 | [20] 0.034

(continued)

KIF22 (UniProt Q14807)
inactive: [1] 0.012 | [2] -0.074 | [3] 0.076 | [4] -0.147 | [5] -0.007 | [6] -0.063 | [7] -0.123 | [8] 0.026 | [9] 0.05 | [10] 0.06 | [11] 0.012 | [12] -0.02 | [13] 0.006 | [14] -0.27 | [15] 0.028 | [16] 0.016 | [17] -0.142 | [18] 0.143 | [19] -0.027 | [20] -0.117

KPNA1 (UniProt P52294)
inactive: [1] 0.032 | [2] 0.009 | [3] -0.012 | [4] 0.014 | [5] 0.021 | [6] 0.01 | [7] -0.022 | [8] -0.037 | [9] -0.021 | [10] -0.002 | [11] 0.005 | [12] -0.008 | [13] -0.002 | [14] 0.003 | [15] -0.014 | [16] 0.018 | [17] 0.014 | [18] -0.004 | [19] 0 | [20] 0.012

KIF5A (UniProt Q12840)
inactive: [1] 0.035 | [2] 0.011 | [3] 0.01 | [4] 0 | [5] -0.024 | [6] 0.037 | [7] -0.014 | [8] -0.033 | [9] -0.004 | [10] 0.029 | [11] 0.002 | [12] 0.006 | [13] 0.012 | [14] -0.039 | [15] -0.011 | [16] -0.008 | [17] -0.006 | [18] -0.008 | [19] -0.015 | [20] 0.006

LARP4 isoform 4 (UniProt Q71RC2)
inactive: [1] 0.014 | [2] 0.028 | [3] 0.003 | [4] 0.009 | [5] -0.005 | [6] 0.025 | [7] 0.012 | [8] 0.061 | [9] -0.032 | [10] -0.024 | [11] -0.003 | [12] -0.035 | [13] -0.014 | [14] 0.058 | [15] 0.013 | [16] -0.011 | [17] 0.001 | [18] -0.005 | [19] -0.018 | [20] 0.029

KIF23 isoform 2 (UniProt Q02241)
inactive: [1] -0.003 | [2] -0.003 | [3] 0.073 | [4] -0.013 | [5] -0.007 | [6] 0.005 | [7] -0.072 | [8] -0.007 | [9] -0.018 | [10] 0.035 | [11] -0.007 | [12] 0.013 | [13] 0.044 | [14] -0.034 | [15] 0.024 | [16] -0.013 | [17] -0.038 | [18] 0.007 | [19] 0.028 | [20] 0.071

LANCL2 (UniProt Q9NS86)
inactive: [1] 0 | [2] 0.01 | [3] 0.057 | [4] -0.033 | [5] 0.024 | [6] -0.002 | [7] 0.005 | [8] -0.028 | [9] 0.039 | [10] 0.003 | [11] -0.015 | [12] -0.001 | [13] 0.012 | [14] -0.016 | [15] 0 | [16] -0.028 | [17] -0.049 | [18] 0.02 | [19] 0 | [20] -0.024

LAMTOR3 (UniProt Q9UHA4)
inactive: [1] -0.006 | [2] -0.037 | [3] 0.003 | [4] -0.053 | [5] -0.005 | [6] -0.019 | [7] 0.027 | [8] -0.017 | [9] 0.012 | [10] 0.063 | [11] 0.03 | [12] 0.007 | [13] 0.021 | [14] -0.041 | [15] -0.008 | [16] -0.014 | [17] -0.008 | [18] 0.069 | [19] -0.007 | [20] -0.01

KIF1B isoform 2 (UniProt O60333)
inactive: [1] -0.002 | [2] 0.017 | [3] 0.028 | [4] -0.058 | [5] -0.001 | [6] -0.012 | [7] -0.033 | [8] 0 | [9] 0.023 | [10] -0.01 | [11] 0.007 | [12] -0.028 | [13] 0.049 | [14] 0.012 | [15] -0.041 | [16] -0.019 | [17] -0.014 | [18] 0.018 | [19] 0.01 | [20] 0.004

KDM8 isoform 3 (UniProt Q8N371)
inactive: [1] 0.09 | [2] -0.383 | [3] -0.039 | [4] 0.027 | [5] -0.014 | [6] -0.042 | [7] 0.033 | [8] 0.021 | [9] 0.035 | [10] 0.037 | [11] 0.056 | [12] -0.006 | [13] 0.013 | [14] -0.035 | [15] 0.004 | [16] 0.021 | [17] -0.029 | [18] 0.014 | [19] -0.005 | [20] -0.008

KXD1 (UniProt Q9BQD3)
inactive: [1] -0.025 | [2] 0.058 | [3] 0.052 | [4] -0.024 | [5] -0.116 | [6] 0.057 | [7] -0.018 | [8] 0.034 | [9] -0.01 | [10] -0.025 | [11] 0.087 | [12] 0.016 | [13] -0.053 | [14] -0.047 | [15] -0.003 | [16] -0.156 | [17] -0.018 | [18] -0.003 | [19] -0.04 | [20] 0.028

KLF16 (UniProt Q9BXK1)
inactive: [1] 0.134 | [2] -0.303 | [3] -0.078 | [4] -0.08 | [5] 0.019 | [6] 0.03 | [7] -0.033 | [8] 0.216 | [9] -0.081 | [10] 0.06 | [11] 0.071 | [12] -0.03 | [13] -0.054 | [14] -0.093 | [15] -0.045 | [16] 0.034 | [17] 0.047 | [18] 0.139 | [19] -0.001 | [20] -0.031
